Data as given in PubChem BioAssay AID1159584 (Peter MacCallum Cancer Centre, 2016).
Test: 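Knock-downs that harm CDH1-null cells more than parental MCF10A cells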 (primary screen). System: human MCF10A breast epithelial cells, parental and CDH1-null. Reagent: siRNA against human genes. Read-out: 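ATP luminescence (CellTiter-Glo) viability per line relative to mean mock wells over all plates, and the ratio of CDH1-null to parental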. Scale: CDH1-null / parental viability ratio: higher = CDH1-null cells survive relatively better than parental; CDH1-null viability vs mock: higher = more viable CDH1-null cells; parental viability vs mock: higher = more viable parental cells.
Shown is a random part of about 18,000 reagents tested. The record does not give: the amount of reagent, the time to read-out.

gene	CDH1-null / parental viability ratio	CDH1-null viability vs mock (fraction of mock)	parental viability vs mock (fraction of mock)
VSIR	1.19	0.74	0.62
TIMP4	1.11	0.9	0.81
LCE1B	1.48	0.43	0.29
SLCO2A1	1.35	1	0.74
RCBTB2	0.57	0.5	0.88
STMN1	1.02	1	0.98
ROBO2	1.21	0.99	0.82
GSTM5	1.01	0.92	0.91
UQCC4	1.17	0.89	0.76
PRORSD1P	1.12	0.64	0.57
VPS13D	1.12	0.76	0.68
CDK2AP2	1.39	0.53	0.38
ITFG1	0.97	0.76	0.78
SGIP1	0.84	0.76	0.9
TIGD7	0.97	0.95	0.98

Entries above whose target name begins with R or r:
gene	CDH1-null / parental viability ratio	CDH1-null viability vs mock (fraction of mock)	parental viability vs mock (fraction of mock)
RCBTB2	0.57	0.5	0.88
ROBO2	1.21	0.99	0.82

Continued.
gene	CDH1-null / parental viability ratio	CDH1-null viability vs mock (fraction of mock)	parental viability vs mock (fraction of mock)
ERO1B	1.11	0.97	0.87
FOXRED1	0.96	0.73	0.76
H2BC5	1.24	0.82	0.66
PDGFD	0.71	0.64	0.9
KLHL41	0.82	0.83	1.01
IDI2	0.92	0.72	0.78
HCST	0.76	0.83	1.09
NME6	1.01	0.85	0.84
PRKRIP1	0.97	0.68	0.7
CYB5A	1.05	0.8	0.76
NRDE2	1.07	0.94	0.88
EAPP	0.92	0.9	0.98
SETD7	1.16	1.02	0.88
